Results from paper PMC4330389, “Domain organization within the nuclear export factor Mex67:Mtr2 generates an extended mRNA binding surface”.
No constants are given. Whether binding was seen depends on the method and setting. Some results given as binding are weak or reduced against the parent protein; the word gives no strength.

Experiments:
[1] = biological target: T1, Mex67 (residues 1–599, full length) (S. cerevisiae) (UniProt Q99257); test: co-purification; Mex67 construct and Mtr2 co-expressed from pETDuet-1 in E. coli; Ni-NTA, TEV cleavage, heparin, Superdex 200 in 20 mM HEPES-NaOH pH 8.0, 200 mM NaCl, 4°C
T1 sequence: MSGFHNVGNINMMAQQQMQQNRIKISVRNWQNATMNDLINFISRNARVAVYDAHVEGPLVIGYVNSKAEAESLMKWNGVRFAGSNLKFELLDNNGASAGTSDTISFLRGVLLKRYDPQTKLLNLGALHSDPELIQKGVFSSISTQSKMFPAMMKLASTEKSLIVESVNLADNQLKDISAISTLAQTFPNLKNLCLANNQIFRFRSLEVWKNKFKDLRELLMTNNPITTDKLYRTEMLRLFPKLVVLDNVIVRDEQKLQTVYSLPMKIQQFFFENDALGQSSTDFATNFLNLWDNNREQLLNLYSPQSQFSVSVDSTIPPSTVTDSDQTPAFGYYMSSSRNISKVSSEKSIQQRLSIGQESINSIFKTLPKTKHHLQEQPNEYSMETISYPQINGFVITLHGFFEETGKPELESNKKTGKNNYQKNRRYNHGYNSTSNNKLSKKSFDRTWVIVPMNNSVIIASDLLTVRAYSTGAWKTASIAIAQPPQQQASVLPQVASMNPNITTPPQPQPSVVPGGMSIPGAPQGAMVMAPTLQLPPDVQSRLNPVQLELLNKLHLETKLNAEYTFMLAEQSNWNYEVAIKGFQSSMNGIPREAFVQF

[2] = biological target: T2, Mex67^NTF2L (residues 264–487) (S. cerevisiae) (UniProt Q99257); test: as above
T2 sequence: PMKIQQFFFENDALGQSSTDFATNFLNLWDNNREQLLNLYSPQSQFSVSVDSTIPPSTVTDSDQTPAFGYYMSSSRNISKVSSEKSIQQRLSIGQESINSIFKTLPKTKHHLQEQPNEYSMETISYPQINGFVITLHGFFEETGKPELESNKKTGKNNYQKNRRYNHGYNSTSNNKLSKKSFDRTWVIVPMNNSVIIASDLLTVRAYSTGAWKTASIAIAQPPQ

[3] = biological target: T3, Mex67^ΔUBA (residues 1–487) (S. cerevisiae) (UniProt Q99257); test: crystal structure; Mex67^ΔUBA:Mtr2 complex, sitting-drop vapor diffusion at 4°C, 10% PEG 8000, 0.01 M zinc acetate, 0.1 M Tris-HCl pH 8.0; 3.3 Å, P2_1, four copies in the asymmetric unit; both purified
T3 sequence: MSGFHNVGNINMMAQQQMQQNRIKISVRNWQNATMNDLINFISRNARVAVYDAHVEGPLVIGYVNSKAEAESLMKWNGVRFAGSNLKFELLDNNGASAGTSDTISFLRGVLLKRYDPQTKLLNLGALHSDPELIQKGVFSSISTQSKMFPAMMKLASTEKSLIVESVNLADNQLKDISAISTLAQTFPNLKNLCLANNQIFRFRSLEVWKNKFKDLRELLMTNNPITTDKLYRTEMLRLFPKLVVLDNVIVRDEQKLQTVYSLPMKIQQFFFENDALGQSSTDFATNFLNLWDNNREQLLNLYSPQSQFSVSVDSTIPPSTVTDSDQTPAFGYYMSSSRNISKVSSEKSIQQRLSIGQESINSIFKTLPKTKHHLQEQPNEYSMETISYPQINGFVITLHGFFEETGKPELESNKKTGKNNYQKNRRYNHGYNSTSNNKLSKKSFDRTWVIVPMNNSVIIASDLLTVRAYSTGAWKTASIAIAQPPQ

[4] = biological target: T3, Mex67^ΔUBA (residues 1–487) (S. cerevisiae); test: SAXS with on-line SEC; purified complexes on a Superdex 200 Increase 3.2/300 column on-line with SAXS, 20°C; profile and estimated Mw compared with models of the complex; both purified
[5] = biological target: T4, Mex67^LRR-NTF2L (residues 101–487) (S. cerevisiae) (UniProt Q99257); test: as above
T4 sequence: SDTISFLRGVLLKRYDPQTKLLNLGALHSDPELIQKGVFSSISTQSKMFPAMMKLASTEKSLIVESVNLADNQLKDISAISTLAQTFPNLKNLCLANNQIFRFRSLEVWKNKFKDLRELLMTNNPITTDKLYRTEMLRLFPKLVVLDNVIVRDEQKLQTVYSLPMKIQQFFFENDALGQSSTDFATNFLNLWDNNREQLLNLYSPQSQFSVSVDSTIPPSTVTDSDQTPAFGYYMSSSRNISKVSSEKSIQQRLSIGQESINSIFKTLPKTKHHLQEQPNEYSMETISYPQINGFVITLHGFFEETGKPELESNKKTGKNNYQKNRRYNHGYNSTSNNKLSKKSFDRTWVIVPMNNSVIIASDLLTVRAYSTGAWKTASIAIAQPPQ

binding [1]: binds | binding [2]: binds | binding [3]: binds | binding [4]: binds | binding [5]: binds
B1: Mtr2 (protein, UniProt P34232 1-184)
chain: MNTNSNTMVMNDANQAQITATFTKKILAHLDDPDSNKLAQFVQLFNPNNCRIIFNATPFAQATVFLQMWQNQVVQTQHALTGVDYHAIPGSGTLICNVNCKVRFDESGRDKMGQDATVPIQPNNTGNRNRPNDMNKPRPLWGPYFGISLQLIIDDRIFRNDFNGVISGFNYNMVYKPEDSLLKI
